Results as given in the supplement of paper PMC10849652.
The other results are listed elsewhere or left out.

Protein sequences, listed by entry. Tags and fused reporters are not part of them. Lines headed by an entry give the natural chain unless they say otherwise; changes in a name come on top.
UniProt Q10472: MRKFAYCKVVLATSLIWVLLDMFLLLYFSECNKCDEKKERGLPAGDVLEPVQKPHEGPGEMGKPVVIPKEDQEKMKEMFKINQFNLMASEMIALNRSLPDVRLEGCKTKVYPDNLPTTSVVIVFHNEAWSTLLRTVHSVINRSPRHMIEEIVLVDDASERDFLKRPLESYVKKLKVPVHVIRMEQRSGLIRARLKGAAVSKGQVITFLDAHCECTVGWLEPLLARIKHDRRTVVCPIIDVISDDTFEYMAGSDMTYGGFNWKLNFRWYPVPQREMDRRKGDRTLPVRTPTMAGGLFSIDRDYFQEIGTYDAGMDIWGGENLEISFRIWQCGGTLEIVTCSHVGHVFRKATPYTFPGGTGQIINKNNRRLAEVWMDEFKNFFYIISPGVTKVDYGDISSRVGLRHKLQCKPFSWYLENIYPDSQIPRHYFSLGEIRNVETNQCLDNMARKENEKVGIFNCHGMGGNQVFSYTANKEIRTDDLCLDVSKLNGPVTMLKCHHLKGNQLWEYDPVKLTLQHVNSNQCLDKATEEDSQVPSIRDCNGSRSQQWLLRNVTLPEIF
UniProt Q9H0R8, whole entry, looked up: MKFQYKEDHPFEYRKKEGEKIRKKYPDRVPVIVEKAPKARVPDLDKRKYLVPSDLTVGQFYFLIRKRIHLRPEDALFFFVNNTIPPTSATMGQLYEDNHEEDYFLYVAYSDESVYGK
UniProt Q8TEQ6: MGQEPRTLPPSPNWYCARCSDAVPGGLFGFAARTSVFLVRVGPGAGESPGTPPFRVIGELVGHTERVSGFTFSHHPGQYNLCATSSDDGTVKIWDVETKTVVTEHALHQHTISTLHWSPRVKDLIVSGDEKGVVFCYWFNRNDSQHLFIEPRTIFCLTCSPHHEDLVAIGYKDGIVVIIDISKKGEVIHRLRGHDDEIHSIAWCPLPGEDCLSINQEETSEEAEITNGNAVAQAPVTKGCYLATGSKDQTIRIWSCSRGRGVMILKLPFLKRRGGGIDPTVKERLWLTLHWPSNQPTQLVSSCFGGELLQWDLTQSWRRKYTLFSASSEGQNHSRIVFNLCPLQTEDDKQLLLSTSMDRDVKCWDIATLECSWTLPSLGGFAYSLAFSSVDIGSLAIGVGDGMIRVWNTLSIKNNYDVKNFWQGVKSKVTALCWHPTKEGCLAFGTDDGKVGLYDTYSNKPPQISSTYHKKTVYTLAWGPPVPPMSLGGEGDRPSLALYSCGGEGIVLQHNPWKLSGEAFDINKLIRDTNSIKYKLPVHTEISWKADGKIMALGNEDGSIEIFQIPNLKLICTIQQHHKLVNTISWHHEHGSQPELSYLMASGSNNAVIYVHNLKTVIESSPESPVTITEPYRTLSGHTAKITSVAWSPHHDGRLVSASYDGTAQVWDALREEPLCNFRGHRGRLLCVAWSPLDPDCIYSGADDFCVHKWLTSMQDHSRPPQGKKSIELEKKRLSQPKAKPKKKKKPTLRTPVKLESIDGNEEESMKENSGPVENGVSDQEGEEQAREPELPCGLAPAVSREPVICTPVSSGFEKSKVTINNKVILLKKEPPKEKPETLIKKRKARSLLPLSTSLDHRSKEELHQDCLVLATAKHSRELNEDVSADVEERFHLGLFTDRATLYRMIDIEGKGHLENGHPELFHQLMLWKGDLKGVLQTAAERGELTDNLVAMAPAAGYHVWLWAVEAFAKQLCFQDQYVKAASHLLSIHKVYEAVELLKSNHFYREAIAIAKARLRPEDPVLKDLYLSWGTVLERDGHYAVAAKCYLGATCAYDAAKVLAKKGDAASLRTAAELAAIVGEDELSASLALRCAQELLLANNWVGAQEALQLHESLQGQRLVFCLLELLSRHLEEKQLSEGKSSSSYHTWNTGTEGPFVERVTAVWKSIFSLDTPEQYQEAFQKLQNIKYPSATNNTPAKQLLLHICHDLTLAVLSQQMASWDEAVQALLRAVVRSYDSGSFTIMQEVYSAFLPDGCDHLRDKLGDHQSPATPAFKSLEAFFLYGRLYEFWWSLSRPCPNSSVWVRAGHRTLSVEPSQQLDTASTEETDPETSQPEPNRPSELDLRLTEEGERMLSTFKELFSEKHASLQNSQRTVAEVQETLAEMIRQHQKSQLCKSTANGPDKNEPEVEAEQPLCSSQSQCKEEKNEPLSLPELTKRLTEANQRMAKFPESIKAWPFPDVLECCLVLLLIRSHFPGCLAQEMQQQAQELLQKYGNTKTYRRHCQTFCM
UniProt Q96NB1: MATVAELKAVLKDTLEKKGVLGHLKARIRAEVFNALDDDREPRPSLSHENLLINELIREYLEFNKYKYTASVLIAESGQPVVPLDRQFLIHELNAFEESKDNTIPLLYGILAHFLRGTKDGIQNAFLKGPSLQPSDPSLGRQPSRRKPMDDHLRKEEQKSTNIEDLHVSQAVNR
UniProt Q10471: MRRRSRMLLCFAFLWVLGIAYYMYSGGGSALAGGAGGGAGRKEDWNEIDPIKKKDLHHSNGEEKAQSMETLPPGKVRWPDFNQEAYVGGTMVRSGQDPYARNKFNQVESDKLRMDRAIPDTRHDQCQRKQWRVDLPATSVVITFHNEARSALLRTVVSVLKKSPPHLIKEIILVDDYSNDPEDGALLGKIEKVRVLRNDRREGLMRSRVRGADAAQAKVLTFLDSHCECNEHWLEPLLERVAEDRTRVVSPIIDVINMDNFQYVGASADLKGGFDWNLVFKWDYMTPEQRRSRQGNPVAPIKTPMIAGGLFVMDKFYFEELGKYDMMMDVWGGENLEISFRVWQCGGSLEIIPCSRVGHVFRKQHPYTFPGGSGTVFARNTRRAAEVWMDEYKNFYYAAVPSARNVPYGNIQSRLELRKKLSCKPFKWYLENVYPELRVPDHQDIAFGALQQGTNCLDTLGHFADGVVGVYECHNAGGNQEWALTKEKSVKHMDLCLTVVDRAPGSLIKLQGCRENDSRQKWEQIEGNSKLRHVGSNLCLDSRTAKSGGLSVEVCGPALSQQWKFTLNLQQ
UniProt P15976: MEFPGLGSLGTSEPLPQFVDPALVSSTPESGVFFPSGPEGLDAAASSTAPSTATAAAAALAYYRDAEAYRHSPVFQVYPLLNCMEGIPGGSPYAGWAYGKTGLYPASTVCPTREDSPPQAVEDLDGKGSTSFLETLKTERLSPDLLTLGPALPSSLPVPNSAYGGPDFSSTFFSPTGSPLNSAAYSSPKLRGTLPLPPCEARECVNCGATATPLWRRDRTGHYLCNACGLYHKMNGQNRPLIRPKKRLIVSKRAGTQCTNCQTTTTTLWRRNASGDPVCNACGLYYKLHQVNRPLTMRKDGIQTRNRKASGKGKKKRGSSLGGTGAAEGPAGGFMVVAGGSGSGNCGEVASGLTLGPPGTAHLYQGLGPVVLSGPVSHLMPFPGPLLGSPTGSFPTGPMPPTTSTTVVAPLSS
UniProt P0CL80: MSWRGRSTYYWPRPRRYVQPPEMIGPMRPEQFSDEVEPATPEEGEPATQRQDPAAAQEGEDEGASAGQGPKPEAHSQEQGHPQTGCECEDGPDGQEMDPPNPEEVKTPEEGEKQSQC
UniProt Q9BTY2: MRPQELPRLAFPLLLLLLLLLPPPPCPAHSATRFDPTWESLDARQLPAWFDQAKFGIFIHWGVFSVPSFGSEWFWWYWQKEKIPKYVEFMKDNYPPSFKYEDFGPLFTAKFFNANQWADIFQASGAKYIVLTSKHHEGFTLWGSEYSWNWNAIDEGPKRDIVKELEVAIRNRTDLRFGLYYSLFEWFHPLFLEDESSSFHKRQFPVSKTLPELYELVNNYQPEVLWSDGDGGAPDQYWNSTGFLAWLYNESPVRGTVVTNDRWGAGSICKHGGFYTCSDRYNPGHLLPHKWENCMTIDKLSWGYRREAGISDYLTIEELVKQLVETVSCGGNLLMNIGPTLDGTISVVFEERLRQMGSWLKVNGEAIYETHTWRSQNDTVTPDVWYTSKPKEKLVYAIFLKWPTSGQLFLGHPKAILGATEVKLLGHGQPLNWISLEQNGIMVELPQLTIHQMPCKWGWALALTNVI
UniProt Q8WXD5: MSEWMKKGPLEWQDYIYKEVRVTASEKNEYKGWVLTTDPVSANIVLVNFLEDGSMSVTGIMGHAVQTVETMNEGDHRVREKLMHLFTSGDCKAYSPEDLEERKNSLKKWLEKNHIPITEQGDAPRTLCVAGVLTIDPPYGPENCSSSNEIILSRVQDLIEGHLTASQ
UniProt Q9UQC2, whole entry, looked up: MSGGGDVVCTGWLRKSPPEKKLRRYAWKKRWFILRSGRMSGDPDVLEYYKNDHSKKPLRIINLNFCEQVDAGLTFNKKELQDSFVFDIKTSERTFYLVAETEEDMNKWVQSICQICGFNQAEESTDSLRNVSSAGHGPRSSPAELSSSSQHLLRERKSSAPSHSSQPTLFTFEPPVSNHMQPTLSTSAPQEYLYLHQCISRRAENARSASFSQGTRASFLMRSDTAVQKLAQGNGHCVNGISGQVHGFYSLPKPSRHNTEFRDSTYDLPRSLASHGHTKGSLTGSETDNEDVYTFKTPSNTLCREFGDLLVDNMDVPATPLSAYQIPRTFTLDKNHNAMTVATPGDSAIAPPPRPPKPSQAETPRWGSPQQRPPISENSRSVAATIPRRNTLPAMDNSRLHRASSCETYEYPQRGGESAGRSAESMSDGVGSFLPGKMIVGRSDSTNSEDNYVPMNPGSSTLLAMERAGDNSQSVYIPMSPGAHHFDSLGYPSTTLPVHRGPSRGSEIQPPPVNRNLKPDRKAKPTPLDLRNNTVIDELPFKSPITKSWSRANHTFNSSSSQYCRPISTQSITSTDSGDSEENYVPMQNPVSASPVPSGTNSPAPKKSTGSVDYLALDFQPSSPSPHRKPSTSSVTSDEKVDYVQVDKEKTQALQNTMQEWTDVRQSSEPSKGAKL
UniProt P04066: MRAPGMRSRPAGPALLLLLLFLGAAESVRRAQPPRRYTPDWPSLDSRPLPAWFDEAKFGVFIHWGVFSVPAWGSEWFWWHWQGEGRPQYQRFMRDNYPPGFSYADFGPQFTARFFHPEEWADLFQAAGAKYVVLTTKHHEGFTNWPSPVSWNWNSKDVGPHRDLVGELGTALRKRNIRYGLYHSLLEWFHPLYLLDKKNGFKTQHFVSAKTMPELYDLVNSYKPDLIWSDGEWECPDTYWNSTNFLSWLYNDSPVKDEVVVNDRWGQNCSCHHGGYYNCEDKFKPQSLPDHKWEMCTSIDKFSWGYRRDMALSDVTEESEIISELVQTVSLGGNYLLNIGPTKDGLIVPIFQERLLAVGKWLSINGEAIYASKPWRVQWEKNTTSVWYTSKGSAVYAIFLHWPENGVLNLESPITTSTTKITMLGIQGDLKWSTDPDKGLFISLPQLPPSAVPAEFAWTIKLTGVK
UniProt P23434: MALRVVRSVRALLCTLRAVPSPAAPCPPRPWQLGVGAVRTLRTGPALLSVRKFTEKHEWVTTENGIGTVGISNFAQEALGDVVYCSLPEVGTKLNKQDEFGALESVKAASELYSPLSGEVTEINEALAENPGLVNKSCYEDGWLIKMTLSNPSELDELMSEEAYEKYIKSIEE
UniProt P48507: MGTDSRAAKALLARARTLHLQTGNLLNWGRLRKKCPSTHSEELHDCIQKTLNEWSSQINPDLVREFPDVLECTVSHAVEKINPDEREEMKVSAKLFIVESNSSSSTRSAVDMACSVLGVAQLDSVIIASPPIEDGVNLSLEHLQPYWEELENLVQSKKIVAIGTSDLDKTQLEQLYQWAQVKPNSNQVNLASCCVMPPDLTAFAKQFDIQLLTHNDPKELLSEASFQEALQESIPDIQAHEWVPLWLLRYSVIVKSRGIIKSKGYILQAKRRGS
UniProt P51570: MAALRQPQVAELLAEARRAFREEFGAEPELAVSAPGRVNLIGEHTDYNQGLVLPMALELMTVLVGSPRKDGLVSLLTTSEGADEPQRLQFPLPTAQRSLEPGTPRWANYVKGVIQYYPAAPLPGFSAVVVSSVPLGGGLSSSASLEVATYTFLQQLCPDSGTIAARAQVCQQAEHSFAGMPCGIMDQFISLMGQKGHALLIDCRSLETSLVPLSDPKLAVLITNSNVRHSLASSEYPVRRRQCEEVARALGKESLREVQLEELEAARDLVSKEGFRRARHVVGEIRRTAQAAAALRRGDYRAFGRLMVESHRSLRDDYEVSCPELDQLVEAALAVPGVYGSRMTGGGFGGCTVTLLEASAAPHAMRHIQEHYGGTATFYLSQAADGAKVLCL

compound: Cc1ccc(-n2nc(C(C)(C)C)cc2NC(=O)Nc2ccc(OCCN3CCOCC3)c3ccccc23)cc1 [doramapimod]; test: log2 fold change, soluble protein after heating vs DMSO (PISA); higher = thermal stabilisation; K562 cells, 10 uM, 30 min; active = over 0.2 and 3.5 SD of the protein, either way, in both replicates (recomputed)
Method in brief: (§1)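 Thermal stability values are relative to control samples and come from duplicates. They are expressed as log2 fold changes. For measurement, K562 cells (2×10^6 cells/mL) received 10 μM compound for 30 min, and aliquots were heated for 3 min over 48°C-58°C, pooled, and extracted at 4°C in PBS with 0.5% NP-40. Soluble protein, the supernatant after 21,000xg for 90 min, was quantified by TMTpro 16plex LC-MS/MS with equalised channel sums.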

| Target | log2 fold change |
| --- | --- |
| GALNT1 (UniProt Q10472) | inactive: 0.026 |
| GABARAPL1 isoform 2 (UniProt Q9H0R8) | inactive: -0.034 |
| GEMIN5 (UniProt Q8TEQ6) | inactive: -0.001 |
| FOPNL (UniProt Q96NB1) | inactive: 0.125 |
| GDI1 (UniProt P31150) | inactive: -0.027 |
| GALNT2 (UniProt Q10471) | inactive: -0.001 |
| GCC2 (UniProt Q8IWJ2) | inactive: 0.136 |
| GATA1 (UniProt P15976) | inactive: 0.017 |
| GAGE12F (UniProt P0CL80) | inactive: 0.043 |
| FUCA2 (UniProt Q9BTY2) | inactive: 0.058 |
| GBF1 (UniProt Q92538) | inactive: 0.059 |

2 successive records already listed, quoted:

| Target | log2 fold change |
| --- | --- |
| GABARAPL1 isoform 2 (UniProt Q9H0R8) | inactive: -0.034 |
| GEMIN5 (UniProt Q8TEQ6) | inactive: -0.001 |

compound: Cc1ccc(C(=O)N(CCCN)[C@@H](c2nc3cc(Cl)ccc3c(=O)n2Cc2ccccc2)C(C)C)cc1 [ispinesib]; test: as above
Method in brief: as §1

| Target | log2 fold change |
| --- | --- |
| GALNT11 (UniProt Q8NCW6) | inactive: -0.163 |
| GEMIN6 (UniProt Q8WXD5) | inactive: -0.017 |
| GALNT4 (UniProt Q8N4A0) | inactive: 0.04 |
| FNTB (UniProt P49356) | inactive: 0.109 |
| FPGS (UniProt Q05932) | inactive: 0.029 |
| GAB2 (UniProt Q9UQC2) | inactive: -0.511 |
| FOXK1 (UniProt P85037) | inactive: 0.373 |
| GAPVD1 isoform 6 (UniProt Q14C86) | inactive: -0.133 |
| FUCA1 (UniProt P04066) | inactive: -0.007 |
| GCSH (UniProt P23434) | inactive: -0.057 |
| GCLM (UniProt P48507) | inactive: 0.076 |
| GALK1 isoform 2 (UniProt P51570) | inactive: 0.078 |
